Data as given in PubChem BioAssay AID1159578 (Peter MacCallum Cancer Centre, 2015)
Assay: 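Knock-downs that alter how fast lymphatic endothelial cells migrate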 (primary screen). Cells: human lymphatic endothelial cells. Reagent: siRNA pool against human genes, 40 nM. Duration: 48 h after transfection. Read-out: 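Cells stained with dye and imaged after a scratch; covered wound area and nuclei counted, duplicates averaged, migration set against mock wells and turned into a robust z-score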. Scale: migration robust z-score: higher = faster migration into the scratch; nuclei per well: higher = more cells in the well. Hit rule: 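Pools averaging fewer than 3300 nuclei are never called; remaining pools count as changed when migration robust z lies outside -2 to 2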. Calls: active = migration changed; inactive = no migration change, or too few cells.
This is an unselected part of about 18,000 deposited reagents. Over the whole deposit, about 1,030 (5.7%) are marked active. 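Inactive calls also include pools with fewer than 3300 nuclei, whose migration was not assessed.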 Raw values are not corrected between plates. Further read-outs or replicates are left out here.

ZNF524 (zinc finger protein 524) [SID255363343] | migration robust z-score = -0.79; migration class with cell-count check = migration z between -2 and 2; enough cells; nuclei per well, duplicate mean = 4172; outcome = inactive
RCN2 (reticulocalbin 2) [SID255352077] | migration robust z-score = 0.82; migration class with cell-count check = migration z between -2 and 2; enough cells; nuclei per well, duplicate mean = 6068; outcome = inactive
MACROD1 (mono-ADP ribosylhydrolase 1) [SID255357104] | migration robust z-score = -0.46; migration class with cell-count check = migration z between -2 and 2; enough cells; nuclei per well, duplicate mean = 5386; outcome = inactive
SCN3A (sodium voltage-gated channel alpha subunit 3) [SID255352303] | migration robust z-score = -0.68; migration class with cell-count check = migration z between -2 and 2; enough cells; nuclei per well, duplicate mean = 6309; outcome = inactive
OR10J3 [SID255365961] | migration robust z-score = 0; migration class with cell-count check = migration z between -2 and 2; enough cells; nuclei per well, duplicate mean = 6008; outcome = inactive
GRHL3 (grainyhead like transcription factor 3) [SID255359603] | migration robust z-score = 1.22; migration class with cell-count check = migration z between -2 and 2; enough cells; nuclei per well, duplicate mean = 5746; outcome = inactive
TMEM120A (transmembrane protein 120A) [SID255361106] | migration robust z-score = -0.82; migration class with cell-count check = migration z between -2 and 2; enough cells; nuclei per well, duplicate mean = 5832; outcome = inactive
BCL10 (BCL10 immune signaling adaptor) [SID255353919] | migration robust z-score = -0.7; migration class with cell-count check = migration z between -2 and 2; enough cells; nuclei per well, duplicate mean = 3380; outcome = inactive
TCL1B (TCL1 family AKT coactivator B) [SID255354419] | migration robust z-score = 2.24; migration class with cell-count check = migration z above 2; enough cells; nuclei per well, duplicate mean = 4906; outcome = active
FBXW9 (F-box and WD repeat domain containing 9) [SID255361277] | migration robust z-score = -0.68; migration class with cell-count check = migration z between -2 and 2; enough cells; nuclei per well, duplicate mean = 3814; outcome = inactive
MAMDC2 (MAM domain containing 2) [SID255364535] | migration robust z-score = 1.71; migration class with cell-count check = migration z between -2 and 2; enough cells; nuclei per well, duplicate mean = 5832; outcome = inactive
RPL18A (ribosomal protein L18a) [SID255352176] | migration robust z-score = -0.73; migration class with cell-count check = migration z between -2 and 2; enough cells; nuclei per well, duplicate mean = 5652; outcome = inactive
SNX19 (sorting nexin 19) [SID255365734] | migration robust z-score = 0.94; migration class with cell-count check = migration z between -2 and 2; enough cells; nuclei per well, duplicate mean = 5242; outcome = inactive
KRTAP13-2 (keratin associated protein 13-2) [SID255364959] | migration robust z-score = -0.22; migration class with cell-count check = migration z between -2 and 2; enough cells; nuclei per well, duplicate mean = 3633; outcome = inactive

Reagents listed so far marked active (1):
TCL1B (TCL1 family AKT coactivator B) [SID255354419] | migration robust z-score = 2.24; migration class with cell-count check = migration z above 2; enough cells; nuclei per well, duplicate mean = 4906; outcome = active

The listing continues.
AWAT1 (acyl-CoA wax alcohol acyltransferase 1) [SID255363679] | migration robust z-score = -0.28; migration class with cell-count check = migration z between -2 and 2; enough cells; nuclei per well, duplicate mean = 5316; outcome = inactive
TMEM54 (transmembrane protein 54) [SID255362193] | migration robust z-score = 0.21; migration class with cell-count check = migration z between -2 and 2; enough cells; nuclei per well, duplicate mean = 6205; outcome = inactive
INHA (inhibin subunit alpha) [SID255350499] | migration robust z-score = 0.55; migration class with cell-count check = migration z between -2 and 2; enough cells; nuclei per well, duplicate mean = 6292; outcome = inactive
ATP5PB (ATP synthase peripheral stalk-membrane subunit b) [SID255348465] | migration robust z-score = -0.41; migration class with cell-count check = migration z between -2 and 2; enough cells; nuclei per well, duplicate mean = 5306; outcome = inactive
TNXB (tenascin XB) [SID255352929] | migration robust z-score = 1.2; migration class with cell-count check = migration z between -2 and 2; enough cells; nuclei per well, duplicate mean = 5292; outcome = inactive
RUSC2 (RUN and SH3 domain containing 2) [SID255354609] | migration robust z-score = -1.75; migration class with cell-count check = under 3300 nuclei; migration not judged; nuclei per well, duplicate mean = 3205; outcome = inactive
SPINK9 (serine peptidase inhibitor Kazal type 9) [SID255366079] | migration robust z-score = 0.81; migration class with cell-count check = migration z between -2 and 2; enough cells; nuclei per well, duplicate mean = 6092; outcome = inactive
